US10865191B2, “Heterocyclic compounds useful as modulators of TNF alpha” (BRISTOL-MYERS SQUIBB COMPANY, priority 2015, dated 2020)
Some of these results come from one statement about several compounds together.

Amino acid sequences for entries named in this document (tags omitted). Residues count along the entry.
UniProt P01375, 77-233 limits assumed: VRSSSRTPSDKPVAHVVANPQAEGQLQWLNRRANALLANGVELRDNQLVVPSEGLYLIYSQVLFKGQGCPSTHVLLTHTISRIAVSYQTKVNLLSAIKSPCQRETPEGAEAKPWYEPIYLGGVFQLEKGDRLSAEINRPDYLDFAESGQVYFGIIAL

Target: TNFα (Homo sapiens, UniProt P01375)
Assay: TNF induced HEK-Blue assay (NF-kB-driven secreted alkaline phosphatase reporter)
Format: cell-based
Settings: TNFα 0.5 ng/mL, HEK-Blue-CD40L cells, 18 h; read-out: IC50 values measured in the TNF induced HEK-Blue assay
Outline: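 HEK-Blue-CD40L cells (NF-kB-driven SEAP reporter), 20,000/well, added after 30 min pre-incubation of compound (0.004–25 μM final) with TNFα 0.5 ng/mL final at 37 °C; 18 h incubation. SEAP read with QUANTI-Blue at 620 nm; IC50 from 4-parameter logistic fit, normalized to unstimulated and stimulated DMSO controls.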

SMILES | IC50 [µM]
C[C@@H](Nc1c(Cl)cnc2cc(F)c(-c3cnc(C(C)(C)O)nc3)cc12)c1cc(C(N)=O)ccc1F [Example 392, (R)-3-(1-((3-chloro-7-fluoro-6-(2-(2-hydroxypropan-2-yl)pyrimidin-5-yl)quinolin-4-yl)amino)ethyl)-4-fluorobenzamide] | ≤ 25
CC(Nc1c(Cl)cnc2cc(F)c(-c3cnc(N4CCN(C(=O)[C@@H](N)CC(=O)O)CC4)nc3)cc12)c1ccccc1F (single isomer, unassigned) [Example 605, (3 S)-3-amino-4-(4-(5-(3-chloro-7-fluoro-4-((1-(2-fluorophenyl)ethyl)amino)quinolin-6-yl)pyrimidin-2-yl)piperazin-1-yl)-4-oxobutanoic acid] | ≤ 25
Cc1nc2cc(F)c(-c3cnc(N4CCNC(=O)C4)nc3)cc2c(N[C@H](C)c2cc(C(N)=O)ccc2F)c1Cl [Example 448, (R)-3-(1-((3-chloro-7-fluoro-2-methyl-6-(2-(3-oxopiperazin-1-yl)pyrimidin-5-yl)quinolin-4-yl)amino)ethyl)-4-fluorobenzamide] | ≤ 25
Cc1nc2ccc(-c3cnc(C(C)(C)O)nc3)cc2c(N[C@H](C)c2cc(C(N)=O)ccc2F)c1Cl [Example 387, (R)-3-(1-((3-chloro-6-(2-(2-hydroxypropan-2-yl)pyrimidin-5-yl)-2-methylquinolin-4-yl)amino)ethyl)-4-fluorobenzamide] | ≤ 25
C[C@@H](Nc1c(Cl)cnc2ccc(-c3ccc(C4(NC(N)=O)CCC4)cc3)cc12)c1ccccc1F [Example 483, (R)-1-(1-(4-(3-chloro-4-((1-(2-fluorophenyl)ethyl)amino)quinolin-6-yl)phenyl)cyclobutyl)urea] | ≤ 25
CCn1cc(-c2ccc(F)c([C@@H](C)Nc3c(Cl)cnc4ccccc34)c2)cn1 [Example 473, (R)-3-chloro-N-(1-(5-(1-ethyl-1H-pyrazol-4-yl)-2-fluorophenyl)ethyl)quinolin-4-amine] | ≤ 25
C[C@@H](Nc1c(Cl)cnc2ccccc12)c1cc(-c2ccnnc2)ccc1F [Example 515, (R)-3-chloro-N-(1-(2-fluoro-5-(pyridazin-4-yl)phenyl)ethyl)quinolin-4-amine] | ≤ 25
CC(Nc1c(Cl)cnc2ccc(-c3ccc(C(C)(C)O)cc3)cc12)c1ccoc1 (racemic) [Example 204, 2-(4-(3-chloro-4-((1-(furan-3-yl)ethyl)amino)quinolin-6-yl)phenyl)propan-2-ol] | ≤ 25
Cc1nc2ccc(-c3cnc(C(C)(C)O)nc3)cc2c(N[C@H](C)c2cc(Br)ccc2F)c1Cl [Example 316, (R)-2-(5-(4-((1-(5-bromo-2-fluorophenyl)ethyl)amino)-3-chloro-2-methylquinolin-6-yl)pyrimidin-2-yl)propan-2-ol] | ≤ 25
CC(Nc1c(Cl)cnc2cc(F)c(-c3cnc(C(C)(O)CO)nc3)cc12)c1ccccc1F (stereo not drawn) [Example 259, 2-(5-(3-chloro-7-fluoro-4-((1-(2-fluorophenyl)ethyl)amino)quinolin-6-yl)pyrimidin-2-yl)propane-1,2-diol] | ≤ 25
CC(C)(O)c1ncc(-c2ccc3ncc(Cl)c(NC4(c5ccccc5)CC4)c3c2)cn1 [Example 161, 2-(5-(3-chloro-4-((1-phenylcyclopropyl)amino)quinolin-6-yl)pyrimidin-2-yl)propan-2-ol] | ≤ 25
CC(C)(O)c1ncc(-c2cc3c(N[C@@H](c4cc(C(N)=O)ccc4F)C(F)F)c(Cl)cnc3cc2F)cn1 [Example 391, (S)-3-(1-((3-chloro-7-fluoro-6-(2-(2-hydroxypropan-2-yl)pyrimidin-5-yl)quinolin-4-yl)amino)-2,2-difluoroethyl)-4-fluorobenzamide] | ≤ 25
Cc1nc2ccc(-c3cnc(C(C)(C)O)nc3)cc2c(N[C@H](C)c2cc(OCCCO)ccc2F)c1Cl [Example 444, (R)-3-(3-(1-((3-chloro-6-(2-(2-hydroxypropan-2-yl)pyrimidin-5-yl)-2-methylquinolin-4-yl)amino)ethyl)-4-fluorophenoxy)propan-1-ol] | ≤ 25
COc1ccc(-c2ccc(F)c([C@@H](C)Nc3c(Cl)cnc4ccccc34)c2)cn1 [Example 460, (R)-3-chloro-N-(1-(2-fluoro-5-(6-methoxypyridin-3-yl)phenyl)ethyl)quinolin-4-amine] | ≤ 25
C[C@@H](Nc1c(Cl)cnc2cc(F)c(-c3cnc(C(C)(C)O)nc3)nc12)c1ccccc1 [Example 193, (R)-2-(5-(7-chloro-3-fluoro-8-((1-phenylethyl)amino)-1,5-naphthyridin-2-yl)pyrimidin-2-yl)propan-2-ol] | ≤ 25
CCC(Nc1c(Cl)cnc2ccc(-c3cnc(C(C)(C)O)nc3)cc12)c1nc(C(N)=O)ccc1F (stereo not drawn) [Example 129, 6-(1-((3-chloro-6-(2-(2-hydroxypropan-2-yl)pyrimidin-5-yl)quinolin-4-yl)amino)propyl)-5-fluoropicolinamide] | ≤ 25
Cc1ccc(C)c(NCc2nc3ccc(-c4cnn(C)c4)cc3c(Nc3cc(C)ccc3C)c2Cl)c1 [Example 2, 3-chloro-N-(2,5-dimethylphenyl)-2-(((2,5-dimethylphenyl)amino)methyl)-6-(1-methyl-1H-pyrazol-4-yl)quinolin-4-amine] | ≤ 25

SMILES | IC50 [µM]
Cc1nc2ccc(-c3cnc(C(C)(C)O)nc3)cc2c(N[C@H](c2cc(C#N)ccc2F)C(F)F)c1Cl [Example 378, (R)-3-(1-((3-chloro-6-(2-(2-hydroxypropan-2-yl)pyrimidin-5-yl)-2-methylquinolin-4-yl)amino)-2,2-difluoroethyl)-4-fluorobenzonitrile] | ≤ 25
Fc1ccc(-c2cncnc2)cc1[C@H](Nc1c(Cl)cnc2ccccc12)C(F)F [Example 559, (S)-3-chloro-N-(2,2-difluoro-1-(2-fluoro-5-(pyrimidin-5-yl)phenyl)ethyl)quinolin-4-amine] | ≤ 25
CC(C)(O)c1ncc(-c2ccc3ncc(Cl)c(NC(c4ccccc4F)C(F)(F)F)c3c2)cn1 (racemic) [Example 164, 2-(5-(3-chloro-4-((2,2,2-trifluoro-1-(2-fluorophenyl)ethyl)amino)quinolin-6-yl)pyrimidin-2-yl)propan-2-ol] | ≤ 25
CC(Nc1c(Cl)cnc2ccc(-c3ccc(C(C)(C)O)cc3)cc12)c1ccncn1 (racemic) [Example 173, 2-(4-(3-chloro-4-((1-(pyrimidin-4-yl)ethyl)amino)quinolin-6-yl)phenyl)propan-2-ol] | ≤ 25
CC(Nc1c(Cl)cnc2cc(F)c(-c3ccc(C(O)C4CC4)cc3)cc12)c1ccccc1F (stereo not drawn) [Example 262, (4-(3-chloro-7-fluoro-4-((1-(2-fluorophenyl)ethyl)amino)quinolin-6-yl)phenyl)(cyclopropyl)methanol] | ≤ 25
Cc1ccc(C)c(Nc2c(Cl)c(CO)nc3ccc(-c4cnc(C(C)(C)O)nc4)cc23)c1 [Example 4, 2-(5-(3-chloro-4-((2,5-dimethylphenyl)amino)-2-(hydroxymethyl)quinolin-6-yl)pyrimidin-2-yl)propan-2-ol] | ≤ 25
CC(Nc1c(Cl)cnc2ccc(-c3cnc(C(C)(C)O)nc3)cc12)[C@@H]1CCCN(C(N)=O)C1 (single isomer, unassigned) [Example 104] | ≤ 25
Cc1nc2ccc(-c3ccc(C(C)(C)O)cc3)cc2c(NC(C)c2cccs2)c1Cl (stereo not drawn) [Example 502, 2-(4-(3-chloro-2-methyl-4-((1-(thiophen-2-yl)ethyl)amino)quinolin-6-yl)phenyl)propan-2-ol] | ≤ 25
Cc1nc2cc(F)c(-c3cnc(N4CCNC(=O)C4)nc3)cc2c(N[C@H](C)c2cc(C#N)ccc2F)c1Cl [Example 561, (R)-3-(1-((3-chloro-7-fluoro-2-methyl-6-(2-(3-oxopiperazin-1-yl)pyrimidin-5-yl)quinolin-4-yl)amino)ethyl)-4-fluorobenzonitrile] | ≤ 25
Cc1nc2ccc(-c3cnc(N4CCN(CC(=O)O)CC4)nc3)cc2c(N[C@H](C)c2cc(C#N)ccc2F)c1Cl [Example 377, (R)-2-(4-(5-(3-chloro-4-((1-(5-cyano-2-fluorophenyl)ethyl)amino)-2-methylquinolin-6-yl)pyrimidin-2-yl)piperazin-1-yl)acetic acid] | ≤ 25
CC(Nc1ncc(-c2ccc3ncc(Cl)c(N[C@H](C)c4ccccc4F)c3c2)cn1)C(N)=O (stereo partly drawn) [Example 591, 2-((5-(3-chloro-4-(((R)-1-(2-fluorophenyl)ethyl)amino)quinolin-6-yl)pyrimidin-2-yl)amino)propanamide] | ≤ 25
CC(=O)c1ccc(F)c([C@@H](C)Nc2c(Cl)cnc3ccc(-c4cnc(C(C)(C)O)nc4)cc23)c1 [Example 409, (R)-1-(3-(1-((3-chloro-6-(2-(2-hydroxypropan-2-yl)pyrimidin-5-yl)quinolin-4-yl)amino)ethyl)-4-fluorophenyl)ethan-1-one] | ≤ 25
C[C@@H](Nc1c(Cl)cnc2ccc(-c3ccc(N4CCN(CC(=O)O)C(=O)C4)nc3)cc12)c1ccccc1F [Example 81, (R)-2-(4-(5-(3-chloro-4-((1-(2-fluorophenyl)ethyl)amino)quinolin-6-yl)pyridin-2-yl)-2-oxopiperazin-1-yl)acetic acid] | ≤ 25
CCC(Nc1c(Cl)cnc2ccc(-c3cnc(C(C)(C)O)nc3)cc12)c1nc(CO)ccc1F (stereo not drawn) [Example 130, 2-(5-(3-chloro-4-((1-(3-fluoro-6-(hydroxymethyl)pyridin-2-yl)propyl)amino)quinolin-6-yl)pyrimidin-2-yl)propan-2-ol] | ≤ 25
C[C@@H](Nc1c(Cl)cnc2ccccc12)c1cc(-c2ccc(N(C)C)nc2)ccc1F [Example 506, (R)-3-chloro-N-(1-(5-(6-(dimethylamino)pyridin-3-yl)-2-fluorophenyl)ethyl) quinolin-4-amine] | ≤ 25
CCC(Nc1c(Cl)cnc2ccc(-c3cnc(C(C)(C)O)nc3)cc12)C1CCC1 (racemic) [Example 50, 2-(5-(3-chloro-4-((1-cyclobutylpropyl)amino)quinolin-6-yl)pyrimidin-2-yl)propan-2-ol] | ≤ 25
